Laboratory results from patent US20250169495A1, “COMPOSITIONS AND METHODS FOR CONTROLLING DROSOPHILA FLIES” (Rutgers, The State University of New Jersey, priority 2023, published 2025).
Some entries share one result that the patent states for a list of compounds.

Tested on: Drosophila suzukii adults
Assay: Pairwise choice bioassays with blueberries
Assay type: in vivo
Settings: dual choice, blueberry fruit with compound vs blueberry fruit without; 24 h; n=5

## CCOC(=O)OCC [diethyl carbonate]
  repellency: ≥ 80%
